One assay addresses T1, ENT1 (Homo sapiens, UniProt Q99808).
T1 sequence (Q99808 1-456): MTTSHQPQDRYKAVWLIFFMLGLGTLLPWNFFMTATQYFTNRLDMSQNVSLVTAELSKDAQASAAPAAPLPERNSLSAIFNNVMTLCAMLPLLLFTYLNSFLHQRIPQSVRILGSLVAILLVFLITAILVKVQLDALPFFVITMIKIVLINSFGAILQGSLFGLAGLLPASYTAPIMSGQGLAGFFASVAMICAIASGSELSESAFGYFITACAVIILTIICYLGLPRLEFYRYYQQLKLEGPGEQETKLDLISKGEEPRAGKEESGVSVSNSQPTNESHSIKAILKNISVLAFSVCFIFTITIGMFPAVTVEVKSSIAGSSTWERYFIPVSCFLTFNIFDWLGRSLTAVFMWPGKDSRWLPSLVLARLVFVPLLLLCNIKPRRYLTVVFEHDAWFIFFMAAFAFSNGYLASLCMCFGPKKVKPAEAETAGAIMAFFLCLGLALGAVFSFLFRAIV
The assay can be described thus: Inhibition of [3H]uridine uptake into WT HeLa. In kind it is cell-based.

The target in another assay is T2, ENT2 (Homo sapiens, UniProt Q14542).
T2 sequence (Q14542 1-456): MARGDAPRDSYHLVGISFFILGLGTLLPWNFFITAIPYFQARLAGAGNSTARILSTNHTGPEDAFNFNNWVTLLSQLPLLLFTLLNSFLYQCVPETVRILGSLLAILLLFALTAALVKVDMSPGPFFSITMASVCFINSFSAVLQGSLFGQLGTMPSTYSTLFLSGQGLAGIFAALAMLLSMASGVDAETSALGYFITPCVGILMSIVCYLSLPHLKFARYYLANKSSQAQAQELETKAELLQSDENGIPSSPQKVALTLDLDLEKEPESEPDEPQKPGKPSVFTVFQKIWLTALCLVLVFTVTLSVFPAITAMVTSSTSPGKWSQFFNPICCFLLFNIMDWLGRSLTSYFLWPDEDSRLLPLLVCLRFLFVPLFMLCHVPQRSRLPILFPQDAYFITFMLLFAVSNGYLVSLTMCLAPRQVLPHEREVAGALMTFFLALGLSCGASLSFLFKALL
The assay can be described thus: Inhibition of [3H]uridine uptake into HeLa FlpIn cells overexpressing hENT2. Format: cell-based.

The results in this text go back to publication PMC12486301 (The Journal of pharmacology and experimental therapeutics, 2025).

By IC50 is commonly meant the concentration that inhibits the measured activity by half. As a reminder, the inhibition is how much of the control response was suppressed.

`O=c1[nH]c2ccccc2n1CCCN1CCC(n2c(=O)[nH]c3cc(Cl)ccc32)CC1` [domperidone] yielded an IC50 against ENT1 of 5.42 ± 0.2 µM.
Take `CN(C)CCN(Cc1cccs1)c1ccccn1` [methapyrilene]: the IC50 is not below 1500 µM against ENT1 and 419 ± 128 µM against ENT2. The inhibition at 20 µM worked out at 23.6% on ENT1 (HeLa, read-out: ENT1 % Inhibition (20μM)) and 7.6% on ENT2 (HeLa, read-out: ENT2 % Inhibition (20μM)).
